# Data: PubChem BioAssay AID504847 (National Center for Advancing Translational Sciences (NCATS), 2011)
# Chains of the proteins cited; added tags and fusions are not shown. Lines headed by an entry give the natural chain unless they say otherwise; changes in a name come on top.
# UniProt P11473: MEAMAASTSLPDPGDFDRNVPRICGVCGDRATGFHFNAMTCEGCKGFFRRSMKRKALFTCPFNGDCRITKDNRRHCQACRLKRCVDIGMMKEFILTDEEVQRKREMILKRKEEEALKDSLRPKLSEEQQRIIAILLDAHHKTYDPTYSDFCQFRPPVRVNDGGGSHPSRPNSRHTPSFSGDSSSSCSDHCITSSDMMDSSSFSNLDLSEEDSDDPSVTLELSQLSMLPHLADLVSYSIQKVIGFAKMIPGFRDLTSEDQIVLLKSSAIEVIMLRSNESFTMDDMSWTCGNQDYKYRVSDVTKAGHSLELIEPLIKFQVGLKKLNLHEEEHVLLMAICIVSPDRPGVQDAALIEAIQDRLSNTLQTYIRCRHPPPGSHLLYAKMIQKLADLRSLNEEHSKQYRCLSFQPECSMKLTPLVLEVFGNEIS
# “And” between values parts separate entries of the source, which are not always exact repeats. Equal values may be shown once. Among all 400,000 compounds or so, about 3,700 (0.93%) were called active. Inconclusive means that the source gave no clear call. Such entries were picked first, then a sample of the others. Calls come from the whole dose curve; as a rule, active = well fitted inhibition curve with a large enough effect; inconclusive = small, poorly fitted or top-dose-only effect, or another doubt; inactive = no such curve, though single readings can be large or run the other way. A potency beside an inconclusive call is a rough fit, not a confirmed value.
# Target: Vitamin D3 receptor (Homo sapiens) (UniProt P11473)
# Test: Inhibitors of the vitamin D receptor (VDR): qHTS
# Settings: VDR-SRC2-3 peptide fluorescence polarization, 2 h; max response, negative = inhibition: stronger effect = lower value
# In short: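 Two reagent solutions held at 4 deg C in the dark were dispensed, compounds pinned at 23 nl, and the mixture incubated 2 h at room temperature. Read-out: fluorescence polarization of VDR–SRC2-3 peptide binding.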
# % is set by controls: 0 for no effect and ±100 for the full control effect; potency is the fitted concentration of half-maximal effect.
Structure (SMILES),Potency,"max response, negative = inhibition"
O=C(N/N=C/c1ccc(O)cc1O)C(=O)N/N=C/c1ccc(O)cc1O,"inconclusive: 0.355 µM [inhibitor, full curve, poor fit]",–
COc1ccc(/C=C/C(=O)Nc2nc(C)cc(C)n2)cc1OC,–,inactive: -18.6%
CCOC(=O)C1=C(CS(=O)(=O)c2ccc(Br)cc2)NC(=O)NC1c1ccccc1 (stereo not given),"inconclusive: 89.1 µM [inhibitor, single point]",–
O=C(Nc1ccc(Br)cc1Cl)c1ccc2c(=O)n3c(nc2c1)CCC3,"inconclusive: 89.1 µM [inhibitor, single point]",–
CCN(CC)c1ccc(NC(=O)c2ccccc2Br)cc1S(=O)(=O)Nc1ccccc1OC,active: 22.4 µM,–
CC(Sc1nnc(-c2ccc(O)cc2)o1)C(=O)Nc1cccc2ccccc12 (stereo not given),–,inactive: -18.8%
COc1ccc(Nc2ncc(C(=O)N3CCN(Cc4ccccc4)CC3)c3ccccc23)cc1,–,inactive: -23.2%
CCCCC(CC)COC(=O)CC(C(=O)OCC(CC)CCCC)S(=O)(=O)O (stereo not given),active: 28.2 µM and active: 25.1 µM,–
COc1cc(/C=C(\C#N)C(=O)Nc2cccc(C(=O)O)c2)ccc1OCc1ccc(C)cc1,"inconclusive: 89.1 µM [inhibitor, single point]",–
O=C(Nc1c(-c2ccccc2)nc2ccc(Cl)cn12)c1cccs1,"inconclusive: 25.1 µM [inhibitor, full curve, poor fit]",–
Cc1c(Cl)cccc1NC(CC(=O)c1ccccc1)C(=O)O (stereo not given),"inconclusive: 44.7 µM [inhibitor, partial curve, poor fit]",–
CCN(CC)S(=O)(=O)c1ccc(C(=O)Oc2coc(CSc3nc(C)cc(C)n3)cc2=O)cc1,"inconclusive: 100 µM [inhibitor, single point]",–
COc1cccc2c1C(=O)c1c(O)c3c(c(O)c1C2=O)C[C@@](O)(C(=O)CO)C[C@@H]3OC1CC(N)C(O)C(C)O1 (stereo not given in full),"inconclusive: 8.91 µM [inhibitor, full curve, poor fit] and inconclusive: 89.1 µM [inhibitor, single point]",–
O=C(O)C(c1ccccc1)N1C(=O)/C(=C\c2ccc(-c3ccc(Br)cc3)o2)SC1=S (stereo not given),"inconclusive: 79.4 µM [inhibitor, partial curve, poor fit]",–
O=C(Nc1ccc(Nc2ccccc2)cc1)c1ccco1,–,inactive: 20.9%
Cc1cccc(NC(=O)C2SC(=Nc3c(C)cccc3C)C(C(=O)N3CCOCC3)=C2N)c1 (stereo not given),"inconclusive: 89.1 µM [inhibitor, single point]",–
O=C(CCN=C1NS(=O)(=O)c2ccccc21)Nc1ccc(F)cc1Cl,"inconclusive: 0.562 µM [inhibitor, full curve, poor fit]",–
COc1cc2c(cc1NS(=O)(=O)c1cccc(C#N)c1)n(C)c(=O)n2C,–,inactive: 6.03%
COc1cccc(/C=C2/C(=O)NN(c3ccc(C)c(C)c3)C2=O)c1,active: 79.4 µM,–
COc1cc(/C=C(\C#N)c2nc3ccc(C)cc3[nH]2)cc([N+](=O)[O-])c1O,"inconclusive: 100 µM [inhibitor, single point]",–
CCOc1cc(Br)cc(/C=C2\SC(=Nc3ccccc3)NC2=O)c1O,"inconclusive: 70.8 µM [inhibitor, single point]",–
N#C/C(=C/c1ccc([N+](=O)[O-])cc1)C(N)=O,active: 79.4 µM,–

Structure (SMILES),Potency,"max response, negative = inhibition"
Nc1ccc(C(=O)Nc2cccc(NC(=O)c3ccc(N)cc3)c2)cc1,"inconclusive: 89.1 µM [inhibitor, partial curve, poor fit]",–
CCOc1ccc(C(=O)CC(C(=O)O)N2CCN(Cc3ccccc3)CC2)cc1 (stereo not given),active: 50.1 µM,–
O=C(NCc1cccc(F)c1)C1=Cc2cc(Br)ccc2OC1,–,inactive: 5.01%
O=C(NCCN1CCc2ccccc2C1)Nc1ccc([N+](=O)[O-])cc1,"inconclusive: 0.562 µM [inhibitor, full curve, poor fit]",–
O=C(C[n+]1ccccc1)N/N=C/c1ccc(O)cc1,"inconclusive: 89.1 µM [inhibitor, single point]",–
COc1ccc(Cc2n[nH]c(=S)n2NC(=O)Nc2ccc(C)cc2)cc1,–,inactive: -6.31%
Cc1cc(C)n2c(SCC#N)nnc2n1,–,inactive: 3.48%
Cc1ccc(S(=O)(=O)NC(C(=O)Oc2ccc3c(C)c(Cl)c(=O)oc3c2)c2ccccc2)cc1 (stereo not given),"inconclusive: 79.4 µM [inhibitor, partial curve, poor fit]",–
CC(=O)NC(c1ccc(Cl)cc1Cl)c1ccc2cccnc2c1O (stereo not given),"inconclusive: 89.1 µM [inhibitor, partial curve, poor fit]",–
S=c1nc(C2COc3ccccc3O2)[nH][nH]1 (stereo not given),"inconclusive: 70.8 µM [inhibitor, single point]",–
CC(=O)Nc1ccc(SC[C@H](Cc2ccccc2)N2CC[C@@H](C(C)(C)C)CCC2=O)cc1,"inconclusive: 89.1 µM [inhibitor, partial curve, poor fit]",–
O=[N+]([O-])c1ccccc1S(=O)(=O)Nc1ccc(-c2ccc(N3CCOCC3)nn2)cc1,–,inactive: 4.7%
COc1ccccc1-c1nccc(NCc2cccnc2)n1,"inconclusive: 70.8 µM [inhibitor, partial curve]",–
COCC(=O)Nc1cc([N+](=O)[O-])ccc1C,–,inactive: -3.61%
FC(F)Oc1ccc(-c2csc(NNC3=NCCCCC3)n2)cc1,"inconclusive: 31.6 µM [inhibitor, single point]",–
COc1cccc(-c2nnc(SCc3ccccn3)n2C)c1,"inconclusive: 31.6 µM [inhibitor, partial curve, poor fit]",–
C[C@@](Cc1ccc(O)c(O)c1)(NN)C(=O)O,"inconclusive: 70.8 µM [inhibitor, partial curve]",–
Cc1ccc(C)c(NC(=O)c2ccccc2O)c1,"inconclusive: 10 µM [inhibitor, partial curve, poor fit]",–
C=CCn1c(SCCOC)nc2c1c(=O)[nH]c(=O)n2C,–,inactive: -11.3%
Cc1cccc(OCc2ccc(-c3nc(C#N)c(NCCN(C)C)o3)o2)c1,–,inactive: -6.1%
CC(NCCN(C)C)C(=O)C12CC3CC(CC(C3)C1)C2 (stereo not given),–,inactive: 2.17%
COc1cc(N=C2C(=O)N3CCCc4cccc2c43)cc(OC)c1,"inconclusive: 79.4 µM [inhibitor, partial curve]",–

Structure (SMILES),Potency,"max response, negative = inhibition"
N#C/C(=C\c1ccc([N+](=O)[O-])cc1)C(=O)Nc1ccccc1O,"inconclusive: 89.1 µM [inhibitor, single point]",–
CCC(C)c1ccccc1NC(=S)NC(=O)c1ccco1 (stereo not given),–,inactive: 13.2%
CCN(CC)c1ccc(NC(=O)c2ccccc2F)cc1S(=O)(=O)Nc1ccccc1OC,"inconclusive: 79.4 µM [inhibitor, partial curve, poor fit]",–
CC1CC(OCC(O)C[N+]2(C)CCOCC2)CC(C)(C)C1 (stereo not given),–,inactive: -5.9%
CCOC(=O)c1c(C)sc2c1N(C(=O)CCl)c1cc(Cl)ccc1S2,"inconclusive: 50.1 µM [inhibitor, partial curve, poor fit]",–
CCCCN1C(=O)Cc2c1nc(N)c1c(N)nc(N(CCC)CCC)c(C#N)c21,"inconclusive: 50.1 µM [inhibitor, partial curve, poor fit]",–
COC(=O)c1c(-c2cccs2)csc1NC(=O)c1ccc(Cl)cc1,"inconclusive: 39.8 µM [inhibitor, single point]",–
O=C(CCN1C(=O)/C(=C/c2ccccc2Cl)SC1=S)Nc1ccccc1C(=O)O,active: 79.4 µM,–
Nc1ccc2nc[nH]c2c1,–,inactive: 3.09%
CC1=CC(C)(C)Nc2ccc(OC(=O)CN3C(=O)c4cccc5cccc(c45)C3=O)cc21,"inconclusive: 63.1 µM [inhibitor, partial curve, poor fit]",–
Oc1ccc(Cl)cc1C1C=C(c2ccc3c(c2)OCO3)NC(c2ccc(Cl)cc2)N1 (stereo not given),"inconclusive: 56.2 µM [inhibitor, partial curve, poor fit]",–
CC(Nc1nc(=S)nc(Nc2ccc(F)cc2)[nH]1)c1ccccc1 (stereo not given),"inconclusive: 79.4 µM [inhibitor, partial curve]",–
O=c1c(-c2cc(F)cc(F)c2)nc2cnc(N3CCNCC3)nc2n1-c1ccccc1,"inconclusive: 50.1 µM [inhibitor, partial curve]",–
Cc1c(Cc2ccccc2)sc(NC(=O)Cc2ccccc2)c1C(N)=O,"inconclusive: 50.1 µM [inhibitor, partial curve, poor fit]",–
O=C(CC1CCCC1)Nc1ccc(Cl)c(S(=O)(=O)N2CCOCC2)c1,–,inactive: -3.94%
FC(F)(F)C1CCCN(c2nsc3ccccc23)C1 (stereo not given),active: 20 µM,–
O=C(NC1CCCCC1)c1ccc(CNc2c(N3CCOCC3)c(=O)c2=O)cc1,"inconclusive: 100 µM [inhibitor, partial curve, poor fit]",–
Cc1cccc(/N=C2/NC(=O)C(Cc3ccccc3)S2)n1 (stereo not given),"inconclusive: 3.55 µM [inhibitor, partial curve, poor fit]",–
COCCCNC(=S)NNC(=S)Nc1ccc(OC)cc1,"inconclusive: 89.1 µM [inhibitor, single point]",–
Cc1ccc(S(=O)(=O)N2[C@@H](c3ccc(Br)cc3)C(C(=O)O)=C[C@H]2CC2CCCC2)cc1,"inconclusive: 50.1 µM [inhibitor, partial curve, poor fit]",–
O=C(NCCc1ccccn1)C(F)(F)C(F)(F)C(F)(F)C(F)(F)C(F)(F)C(F)F,"inconclusive: 56.2 µM [inhibitor, partial curve, poor fit]",–

# Record cards (already shown):
# `CC1CC(OCC(O)C[N+]2(C)CCOCC2)CC(C)(C)C1` (stereo not given) reads max response, negative = inhibition: inactive: -5.9%
# `COc1cccc(/C=C2/C(=O)NN(c3ccc(C)c(C)c3)C2=O)c1` reads Potency: active: 79.4 µM
# `N#C/C(=C\c1ccc([N+](=O)[O-])cc1)C(=O)Nc1ccccc1O` reads Potency: inconclusive: 89.1 µM [inhibitor, single point]
# `CCCCN1C(=O)Cc2c1nc(N)c1c(N)nc(N(CCC)CCC)c(C#N)c21` reads Potency: inconclusive: 50.1 µM [inhibitor, partial curve, poor fit]
